The nature of this experiment: qHTS Assay for Lipid Storage Modulators in Drosophila S3 Cells.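 For cell number change: cells counted by Cell Tracker Red CMTPX staining in the red channel.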 The conditions noted are these: BODIPY lipid droplet fluorescence, 18-24 h; for cell number change: measured here: cell count max response, cells fed with added oleic acid. A digest of the protocol:
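Drosophila S3 cells got compounds at several concentrations plus oleic acid (400 uM solution). Laser-scanning cytometry with 488 nm excitation read lipid droplets at 500-530 nm and cells at 575-640 nm. Percent activity was relative to 20 uM Triacsin C.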
On the technique in general: qHTS replaces the single test concentration by a dilution series.

Where [1] appears, read: measured here: lipid fluorescence (Fed channel) AC50, cells fed with added oleic acid.
Where [2] appears, read: measured here: cell number channel AC50, cells fed with added oleic acid.

Molecules are shown by their SMILES. This is one part of the list. The main result of the screen is listed elsewhere. These columns were measured beside it and carry no call. Most of these compounds were active or inconclusive in the main read-out, so they are no random draw. The note in brackets gives the kind of curve behind each potency; many fits are weak.

One may read the AC50 as the midpoint of the concentration-response curve, whichever way the signal moves. High values mean weaker potency, low ones greater potency. For the molecule `C=CCS/C(=N\n1cnc2ccccc2c1=O)N(CC)CC`, the cell number change is 0.378%. Further, under setting [1], the AC50 was 6.51 µM [falling, single point].

Turning to `COc1ccc(NS(=O)(=O)c2ccc(S(=O)(=O)N3CCCC3)cc2)cc1Cl`, the cell number change was determined as 78.3%. Also, the AC50 under setting [1] is 0.116 µM [falling, full curve, poor fit].

As for `COCc1nnc(NC(=O)C2CCN(C(=O)c3ccco3)CC2)s1`, the cell number change is 21.4%. The concentration at half-maximal activity (AC50) under setting [2] is 0.291 µM [rising, full curve, poor fit].

Turning to `CC(=O)c1ccc(S(=O)(=O)N(C)CCCC(=O)NCc2ccc3c(c2)OCO3)cc1`, the cell number change is -4.06%. The half-maximal activity concentration (AC50) under setting [2] is 0.00461 µM [falling, full curve, poor fit]. In addition, the half-maximal activity concentration (AC50) under setting [1] was 6.51 µM [falling, single point].

Take `Fc1ccc(C2=Nn3c(Cc4ccccc4F)nnc3SC2)cc1`: the cell number change was found to be 16.6%. Besides, the half-maximal activity concentration (AC50) under setting [1] was 20.6 µM [rising, single point].

In the case of `Cc1c(Br)ccc(NC(=O)c2ccccc2[N+](=O)[O-])c1C`, the cell number change is -35.8%.

Regarding `CN(C)c1ccc(/C=N/c2cc(-c3ccccc3)nn2-c2ccccc2)cc1`, the cell number change amounted to 83%. Further, the half-maximal activity concentration (AC50) under setting [2] was 1.64 µM [rising, full curve]. Further, under setting [1], the concentration at half-maximal activity (AC50) is 2.06 µM [rising, partial curve].

Take `O=C(O)CNS(=O)(=O)c1ccc2c(c1)Cc1cc(S(=O)(=O)NCC(=O)O)ccc1-2`: the cell number change turned out to be 27%.

Regarding `O=C(COc1ccc([N+](=O)[O-])cc1)Nc1cccc2nsnc12`, the cell number change was found to be 35.6%. Besides, the AC50 under setting [2] was 29.1 µM [rising, single point].

As to `CCOc1ccc(NC(N)=O)cc1OCC`, the cell number change is 41.4%. In addition, the AC50 under setting [2] was 11.6 µM [rising, partial curve, poor fit]. Besides, the concentration at half-maximal activity (AC50) under setting [1] was 0.092 µM [falling, full curve, poor fit].

As to `CC(C)c1ccc[n+](-c2nc([O-])sc2C=O)c1`, the cell number change was -4.56%. Under setting [1], the AC50 was 0.58 µM [falling, single point].

As to `Cc1ccc(S(=O)(=O)N2[C@@H](c3ccccc3F)C(C(=O)O)=CC[C@H]2c2cccc(Cl)c2)cc1`, the cell number change is 31.4%. For the same molecule, the half-maximal activity concentration (AC50) under setting [2] is 0.13 µM [rising, full curve, poor fit]. Further, under setting [1], the concentration at half-maximal activity (AC50) is 7.31 µM [rising, partial curve, poor fit].

`C=CCNc1ncnc2c1[nH]c1ccc(C)cc12`: the cell number change is -104%. The half-maximal activity concentration (AC50) under setting [2] was 18.4 µM [falling, single point]. Moreover, the half-maximal activity concentration (AC50) under setting [1] was 29.1 µM [falling, single point].

With `CCOCCn1c(=NC(=O)c2cc(Cl)sc2Cl)sc2cc(S(N)(=O)=O)ccc21`, the cell number change stood at 14.2%. In addition, under setting [2], the concentration at half-maximal activity (AC50) was 3.26 µM [rising, single point]. The AC50 under setting [1] is 2.31 µM [rising, partial curve].

On to `CCOc1ccc(Cn2c3ccc(OC)cc3c3nc4ccccc4nc32)cc1`, for which the cell number change worked out at 1.88%. Besides, the concentration at half-maximal activity (AC50) under setting [1] was 20.6 µM [rising, single point].

For `COC(=O)c1ccc(CNC(=O)c2ccc(S(=O)(=O)N(C)c3ccccc3OC)cc2)cc1`, the cell number change was -18.8%. For the same molecule, under setting [1], the AC50 is 29.1 µM [falling, single point].

Take `COc1ccc(C2NC(=O)NC(C)=C2[N+](=O)[O-])cc1` (stereo not drawn): the cell number change is 5.96%. The AC50 under setting [1] was 29.1 µM [rising, single point].

In the case of `COc1cc2ccccc2cc1C(=O)Nc1ccc(S(=O)(=O)Nc2cc(C)on2)cc1`, the cell number change was -9.36%. Besides, the AC50 under setting [2] was 3.26 µM [rising, single point]. The AC50 under setting [1] is 4.11 µM [rising, partial curve].

As to `CCOc1ccc(C(=O)Nc2cccc(-c3ccc4nncn4n3)c2)cc1`, the cell number change turned out to be 9.64%. Further, under setting [1], the half-maximal activity concentration (AC50) was 0.082 µM [rising, single point].

As for `CCN(CC)c1ccc(/C=C/C(=O)c2cccnc2)cc1`, the cell number change was found to be 95.7%. Moreover, the AC50 under setting [2] is 29.1 µM [rising, partial curve, poor fit].

In the case of `O=C(Nc1nccs1)c1ccc(Br)cc1`, the cell number change was 13.5%. The concentration at half-maximal activity (AC50) under setting [1] was 29.1 µM [falling, single point].

For `CNC(=O)c1c(NC(=O)c2ccc(S(=O)(=O)N(C)c3ccccc3)cc2)sc2c1CCN(C(C)C)C2`, the AC50 under setting [1] was 6.31 µM [falling, full curve].

In the case of `O=C(CSc1cn(CCNC(=O)c2cccs2)c2ccccc12)NC1CCCCC1`, the cell number change was 18.5%. Under setting [1], the AC50 is 6.51 µM [rising, single point].

`CC(OC(=O)CCCOc1ccccc1)C(=O)Nc1ccc(Cl)cn1` (stereo not drawn): the cell number change was -11.1%.

In the case of `CC1CC(C)(C)n2c(O)c(N=NC(N)=S)c3cccc1c32` (stereo not drawn), the cell number change was -55.4%. For the same molecule, under setting [2], the concentration at half-maximal activity (AC50) is 9.2 µM [falling, partial curve, poor fit]. Further, under setting [1], the AC50 was 7.31 µM [falling, partial curve].

Regarding `CCCC(=O)Nc1ccc2nc(SCC(=O)Nc3ccc(N4CCOCC4)c(Cl)c3)sc2c1`, the AC50 is 4.11 µM [rising, single point] under setting [2] and 9.2 µM [rising, partial curve] under setting [1].

Take `COc1ccc(-c2nc(CN3CCC(c4ccccc4)CC3)c(C)o2)cc1OC`: the cell number change was found to be 4.66%. Besides, under setting [1], the AC50 is 25.9 µM [rising, single point].

For `Cc1onc(-c2c(Cl)cccc2Cl)c1C(=O)Nc1c(C)n(C)n(-c2ccccc2)c1=O`, the cell number change worked out at 11.8%. Besides, under setting [1], the AC50 was 29.1 µM [rising, single point].

For the molecule `O=C1CCCc2[nH]nc(-c3cccnc3)c21`, the cell number change was 77.3%. For the same molecule, under setting [2], the AC50 is 5.17 µM [rising, partial curve].

For the molecule `CCN(CC)S(=O)(=O)c1ccc(OC)c(NC(=O)c2ccc(N3CCCC3=O)cc2)c1`, the cell number change is -5.22%.

Take `C/C(=N\NC(=S)NC(C)C)c1ccc(Cl)s1`: the cell number change is -56%. In addition, the AC50 under setting [2] was 29.1 µM [falling, single point]. The AC50 under setting [1] was 5.8 µM [falling, partial curve, poor fit].

`COCc1nnc(NC(=O)CCSc2ccccc2)s1`: the cell number change was 20.8%. Under setting [1], the concentration at half-maximal activity (AC50) is 29.1 µM [rising, single point].

As for `O=S(=O)(NCc1cccnc1)c1ccc(Cl)c2ccccc12`, the cell number change was determined as 19.4%. Further, under setting [1], the AC50 was 29.1 µM [falling, single point].

In the case of `CC1CCCCN1Cc1ccc(-c2nn[nH]n2)cc1` (stereo not drawn), the cell number change was -115%. For the same molecule, the AC50 under setting [2] was 29.1 µM [falling, partial curve]. Moreover, the AC50 under setting [1] is 20.6 µM [falling, partial curve].

Regarding `CCC(C)(C)NC(=O)C(c1ccncc1)N(Cc1cccs1)C(=O)Cn1nnc2ccccc21` (stereo not drawn), the cell number change is -20.2%.

Turning to `CCn1c(=S)sc2c(=O)n(-c3ccccc3)c(SC)nc21`, the cell number change was -13.6%. The AC50 under setting [1] was 6.51 µM [falling, single point].

Turning to `CN(CCN1CCOCC1)Cc1nc(-c2ccc3c(c2)OCO3)no1`, the cell number change was 6.8%.

With `CCc1nnc(NC(=O)CCN(c2ccc(C)cc2)S(=O)(=O)c2ccccc2)s1`, the cell number change is -33.3%. In addition, under setting [2], the half-maximal activity concentration (AC50) was 0.82 µM [falling, partial curve, poor fit].

Take `Cc1ccc(OCC(=O)N2CCN(c3nnc(-c4ccc(C)cc4)c4ccccc34)CC2)cc1`: the half-maximal activity concentration (AC50) under setting [2] was 4.11 µM [rising, partial curve].

Consider `Cc1cc(C)cc(-n2nnn(C3C/C(=N/NC(N)=S)C4OCC3O4)c2=S)c1` (stereo not drawn), for which the cell number change was -20.8%. Under setting [2], the concentration at half-maximal activity (AC50) was 0.0651 µM [falling, full curve, poor fit].

Turning to `CS(=O)(=O)N(CC(O)CON=C1c2ccccc2-c2ccccc21)c1ccc(F)cc1` (stereo not drawn), the cell number change worked out at 14.6%. Also, the AC50 under setting [2] is 1.3 µM [falling, full curve]. For the same molecule, the concentration at half-maximal activity (AC50) under setting [1] is 0.82 µM [falling, full curve].

Take `Cc1ccc(/C=C/C(=O)O)cc1S(=O)(=O)N1CCc2ccccc2C1`: the cell number change was 7.12%. Further, the half-maximal activity concentration (AC50) under setting [2] is 0.164 µM [rising, full curve, poor fit].

Take `CC1(C)Cc2c(sc3[nH]c(=S)n(Cc4ccco4)c(=O)c23)CO1`: the cell number change was -4.82%. Besides, the AC50 under setting [1] is 29.1 µM [rising, single point].

`O=C1CSC(=S)N1/N=C/C=C/c1ccccc1`: the AC50 under setting [1] was 0.103 µM [falling, full curve, poor fit].

Consider `CCn1c(=O)n(CC)c2cc(N3CCCC3)c(NC(=O)c3ccc(OC)c(Br)c3)cc21`, for which the cell number change is 1.15%. Further, under setting [1], the AC50 is 0.13 µM [rising, full curve, poor fit].

For the molecule `c1cc2nncn2nc1N1CCCC1`, the cell number change is 5.64%. The AC50 under setting [1] was 0.13 µM [falling, full curve].

For the molecule `COc1ccc(NC(=O)CSc2n[nH]c(N)n2)cc1OC`, the cell number change was 30.4%. Further, under setting [2], the AC50 was 10 µM [rising, single point]. For the same molecule, the AC50 under setting [1] was 8.91 µM [rising, partial curve, poor fit].

`Cc1cccn2c(=O)c3cc(S(=O)(=O)c4ccccc4)c(=N)n(Cc4ccc(F)cc4)c3nc12`: the cell number change worked out at 10.4%. For the same molecule, under setting [1], the AC50 was 29.1 µM [rising, single point].

For the molecule `Cn1c(=O)oc2cc(S(=O)(=O)NCCC(=O)N3CCc4ccccc4C3)ccc21`, the cell number change is 81.3%. Besides, under setting [1], the half-maximal activity concentration (AC50) was 4.11 µM [rising, single point].

On to `COc1ccccc1NC(=O)C1CCCCN1S(=O)(=O)c1ccc(F)cc1` (stereo not drawn), for which the cell number change is -10.9%. In addition, the concentration at half-maximal activity (AC50) under setting [1] is 0.0731 µM [falling, full curve, poor fit].

With `Cc1ccc(-n2nc3c(c2NC(=O)c2c(F)cccc2Cl)CS(=O)(=O)C3)cc1C`, the cell number change came to 11.4%. Moreover, under setting [1], the AC50 was 6.51 µM [rising, single point].

As to `CC(=O)Nc1ccc(S(=O)(=O)NCc2ccc(C(=O)NC(C)c3ccccc3)cc2)cc1` (stereo not drawn), the cell number change is 28%.

For the molecule `CC(=O)/C(C[N+]1(C)CCCCC1)=N\O`, the cell number change was -90.7%. The AC50 under setting [2] was 11.6 µM [falling, partial curve]. The AC50 under setting [1] was 14.6 µM [falling, partial curve].

For `O=C(NC1CS(=O)(=O)CC1NCc1ccccc1)c1ccccc1` (stereo not drawn), the cell number change amounted to 1.8%. For the same molecule, the half-maximal activity concentration (AC50) under setting [1] is 4.11 µM [rising, full curve, poor fit].

Regarding `COCCN(C(=O)COC(=O)/C=C/c1cccc(OC)c1)c1c(N)n(CC(C)C)c(=O)[nH]c1=O`, the cell number change was 75%. Moreover, the AC50 under setting [2] was 2.31 µM [rising, full curve].

Take `COc1ccc(C(=O)Nc2ccc(NS(=O)(=O)c3ccccc3)cc2)cc1OC`: the cell number change stood at 4.44%. For the same molecule, under setting [1], the concentration at half-maximal activity (AC50) was 0.82 µM [rising, full curve, poor fit].

As for `Cc1cc(C)cc(Oc2cc(NC(=O)c3cn(C)nc3C)cc([N+](=O)[O-])c2)c1`, the cell number change was -68.5%. In addition, the AC50 under setting [2] was 13 µM [falling, partial curve]. Moreover, the half-maximal activity concentration (AC50) under setting [1] is 9.2 µM [falling, partial curve].

The values above are taken from PubChem BioAssay AID2685 (National Center for Advancing Translational Sciences (NCATS), 2010).
